Drawing on patent US20030040612A1 (MOUNT SINAI SCHOOL OF MEDICINE, published 2003), this text covers binding for 1 molecule.

The target of this test is tyrosine-phosphorylated TRKB. Description: yeast two-hybrid.

No constants are given. Whether binding was seen depends on the method and setting. Binding can be weak; no strength is given. Tags and fused reporters may be left off the sequences shown.

B1: truncated SNT-1 PTB domain lacking the β8 region (residues 2-111), GAL4 AD fusion (other, not shown: large carriers; small tags and cut ends)
chain: GSCCSCPDKDTVPDNHRNKFKVINVDDDGNELGSGIMELTDTELILYTRKRDSVKWHYLCLRRYGYDSNLFSFESGRRCQTGQGIFAFKCARAEELFNMLQEIMQNNSIN
notes: Yeast two-hybrid construct; also called SNT-1 PTB domain protein lacking the β8 strand
Consider B1, for which the binding result was “binds”.
